Results are given in words; binding and its absence hold for the method and conditions named. Binding seen in cells or lysates may run through a third protein. Some results given as binding are weak or reduced against the parent protein; the word gives no strength.
Biological target: T1, DEAD-Box 56 (DDX56) (human (in the human HCC cell lines MHCC97H and Huh-7)) (UniProt Q9NY93)
T1 sequence: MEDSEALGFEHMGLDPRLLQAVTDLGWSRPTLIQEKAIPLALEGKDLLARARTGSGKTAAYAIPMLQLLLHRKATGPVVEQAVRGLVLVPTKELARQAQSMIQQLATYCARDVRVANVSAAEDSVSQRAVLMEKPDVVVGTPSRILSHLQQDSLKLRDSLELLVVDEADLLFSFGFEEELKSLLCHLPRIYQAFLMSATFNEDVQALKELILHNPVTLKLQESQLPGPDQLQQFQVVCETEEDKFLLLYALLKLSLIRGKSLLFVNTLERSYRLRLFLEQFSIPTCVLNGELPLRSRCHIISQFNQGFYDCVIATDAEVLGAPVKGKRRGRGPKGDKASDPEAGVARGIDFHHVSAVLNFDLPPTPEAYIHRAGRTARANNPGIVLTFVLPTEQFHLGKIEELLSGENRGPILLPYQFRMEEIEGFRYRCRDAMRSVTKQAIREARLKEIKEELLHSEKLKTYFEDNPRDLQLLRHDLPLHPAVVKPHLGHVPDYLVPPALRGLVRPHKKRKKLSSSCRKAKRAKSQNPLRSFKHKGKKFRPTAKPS
Experiment: co-IP; reciprocal co-immunoprecipitation in MHCC97H and Huh-7 cells; no method described

By UniProt entry, the sequences of proteins in these tests, tags left out.
UniProt Q03112: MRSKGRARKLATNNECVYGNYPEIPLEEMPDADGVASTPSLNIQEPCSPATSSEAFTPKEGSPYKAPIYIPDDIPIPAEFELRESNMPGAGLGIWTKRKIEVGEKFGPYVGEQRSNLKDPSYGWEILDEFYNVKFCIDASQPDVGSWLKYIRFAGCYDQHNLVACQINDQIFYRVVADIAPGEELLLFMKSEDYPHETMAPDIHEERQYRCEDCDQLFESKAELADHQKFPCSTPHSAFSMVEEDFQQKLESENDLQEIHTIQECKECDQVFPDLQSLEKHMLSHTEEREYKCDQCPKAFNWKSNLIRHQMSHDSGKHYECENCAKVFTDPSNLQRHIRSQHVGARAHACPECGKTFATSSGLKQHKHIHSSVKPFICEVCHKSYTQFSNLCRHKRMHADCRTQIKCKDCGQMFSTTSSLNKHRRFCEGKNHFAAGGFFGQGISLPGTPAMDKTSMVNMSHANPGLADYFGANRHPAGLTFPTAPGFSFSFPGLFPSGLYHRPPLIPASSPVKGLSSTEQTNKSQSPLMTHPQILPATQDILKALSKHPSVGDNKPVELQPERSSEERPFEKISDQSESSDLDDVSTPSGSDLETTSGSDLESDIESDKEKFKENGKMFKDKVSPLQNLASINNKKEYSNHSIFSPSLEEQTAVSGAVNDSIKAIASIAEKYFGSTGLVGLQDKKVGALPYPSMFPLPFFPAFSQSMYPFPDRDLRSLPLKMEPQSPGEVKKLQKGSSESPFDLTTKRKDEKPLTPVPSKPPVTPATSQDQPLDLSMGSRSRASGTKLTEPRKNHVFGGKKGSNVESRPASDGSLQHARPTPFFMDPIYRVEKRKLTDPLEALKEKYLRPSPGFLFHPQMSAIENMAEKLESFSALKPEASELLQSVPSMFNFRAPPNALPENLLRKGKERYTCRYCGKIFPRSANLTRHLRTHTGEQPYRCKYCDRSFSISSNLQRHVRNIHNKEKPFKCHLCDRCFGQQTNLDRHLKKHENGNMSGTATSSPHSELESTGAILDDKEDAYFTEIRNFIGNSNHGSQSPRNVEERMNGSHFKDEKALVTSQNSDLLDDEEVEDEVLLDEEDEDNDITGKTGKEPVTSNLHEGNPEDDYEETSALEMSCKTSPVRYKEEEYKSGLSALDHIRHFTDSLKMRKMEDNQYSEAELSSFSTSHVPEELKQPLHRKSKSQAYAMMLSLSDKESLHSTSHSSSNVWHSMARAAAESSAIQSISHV

binding: binds
Substance: MDS1 and EVI1 complex locus (MECOM) (from UniProt Q03112 1-1230)

From article PMC9475456, “DDX56 transcriptionally activates MIST1 to facilitate tumorigenesis of HCC through PTEN-AKT signaling”
